From patent US4060526A, “1-Heterocyclic alkyl-1,2,3,4-tetrahydroquinazolinones and analgesic intermediates thereof” (priority 1976, dated 1977)

Columns and labels:
[1] = phenylbenzoquinone writhing test, mouse; details: in vivo, po, Mouse p.o.
From the text: […]. […] Ten animals are used at each dose level.

in vivo [2] = details: Morphine and Codeine columns
in vivo [3] = details: ip
[4] = mouse hot plate test (Eddy and Leimbach, modified); details: in vivo

`CN1CC[C@]23c4c5ccc(O)c4O[C@H]2[C@@H](O)C=C[C@H]3[C@H]1C5` [Morphine, reference compound] gave a selectivity ratio ([1]; HNSD = highest dose without gross symptoms, read-out: HNSD./ED50 Writhing) of 19, a selectivity ratio ([1]; read-out: LD50 /ED50 Writhing) of 267 and an LD50 at 48 h (in vivo [2]; ip, Mouse i.p.) of 250 mg/kg. The LD50 at 48 h (in vivo [2]; po, Mouse p.o.) was 800 mg/kg, the LD50 (in vivo [3]) was 380 mg/kg and the NOAEL (in vivo [3]) was 10 mg/kg. The selectivity ratio ([4]; ip, HNSD./ED50 H.P., Mouse i.p., HNSD = highest dose without gross symptoms) was 4, the selectivity ratio ([4]; ip, LD50 /ED50 H.P., Mouse i.p.) was 100 and the selectivity ratio ([4]; po, HNSD./ED50 H.P., Mouse p.o., HNSD = highest dose without gross symptoms) was 4. It also gave a selectivity ratio ([4]; po, LD50 /ED50 H.P., Mouse p.o.) of 570.
